Some entries share one result that the patent states for a list of compounds.
Columns and labels:
Test in all cases: MIC, micro-broth dilution method
Type in all cases: cell-based
[1] = tested on: Methicillin-resistant Staphylococcus aureus ATCC33591
Experimental: (§1) The minimum inhibitory concentration (MIC) of pleuromutilin cinnamate easters and their starting materials was tested by a micro-broth dilution method, with retamoline, vornimulin and tiamulin as positive controls.
(§2) The experimental strains included Gram-positive bacteria: Methicillin-sensitive Staphylococcus epidermidis ATCC12228, Staphylococcus aureus ATCC29213 and ATCC25923, and Methicillin-resistant Staphylococcus aureus ATCC33591; Gram-negative bacteria: Acinetobacter baumannii ATCC19606 and E. coli Bacillus ATCC25922 (the strains used were from the American type culture collection (ATCC)).

[2] = tested on: Staphylococcus aureus ATCC29213
Experimental: as §1, §2

[3] = tested on: Staphylococcus aureus ATCC25923; conditions: Staphylococcus aureus ATCC25293 as printed in text
Experimental: as §1, §2

[4] = tested on: Methicillin-sensitive Staphylococcus epidermidis ATCC12228
Experimental: as §1, §2

Compound: C=C[C@]1(C)C[C@@H](OC(=O)COC(=O)/C=C/c2ccc(C#N)cc2)[C@]2(C)[C@H](C)CC[C@]3(CCC(=O)[C@H]32)[C@@H](C)[C@@H]1O [Compound 6, (E)-2-(((3aR,4R,5R,8S,9R,12R)-8-hydroxy-4,7,9,12-tetramethyl-3-oxo-7-vinyldecahydro-4,9a-propanocyclopenta[8]annulen-5-yl)oxy)-2-oxoethyl 3-(4-cyanophenyl)acrylate]
- inhibition (in words) [1]: all had inhibitory effects
- inhibition (in words) [2]: all had inhibitory effects
- inhibition (in words) [3]: all had inhibitory effects
- inhibition (in words) [4]: can inhibit

From patent US11872202B2, “Pleuromutilin cinnamic acid ester compounds with activities against antibiotic-resistant infections” (SHAANXI UNIVERSITY OF SCIENCE AND TECHNOLOGY, priority 2021, dated 2024)
